Laboratory results as given in the supplement of paper PMC9877034.
Counter-ions that a name gives are not always drawn. Whole data set: some 1,000 compounds, median “cFRET/donor change relative to DMSO, normalised to beta-lapachone positive control (supercomplex I-IV assembly)” near 0.18, cut for the lowest 2% near -1. Some of the results follow.

What follows are compounds tested on C2C12 (NDUFB8-AcGFP / COX8A-DsRed-Monomer FRET reporter) (assay: cFRET/donor change relative to DMSO, normalised to beta-lapachone positive control (supercomplex I-IV assembly) (fraction of beta-lapachone effect); higher = more respiratory supercomplex assembly). Conditions: 40 µM; 24 h.
Experimental: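 Cells were treated with 40 uM compound for 24 h and imaged on an IN Cell Analyzer 6000. Corrected FRET was divided by donor signal (cFRET/donor) and measured in two replicate experiments. The score is (mean cFRET/donor of compound - mean DMSO) / (mean beta-lapachone 40 uM - mean DMSO). Compounds flagged for prominent cell death, abnormal morphology or decreased cell number were excluded.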
In the case of `NC(CCCP(=O)(O)O)C(=O)O` (racemic) [(±)-2-Amino-5-phosphonopentanoic acid], the cFRET/donor change was -0.122. For `NCC(O)c1ccc(O)c(O)c1` (racemic) [(±)-Norepinephrine (+)bitartrate], the cFRET/donor change was -0.03. Work on `CCCCOC(=O)NS(=O)(=O)c1sc(CC(C)C)cc1-c1ccc(Cn2c(CC)nc3c(C)cc(C)nc32)cc1` yielded a cFRET/donor change of 0.261. In the case of `FC(F)(F)c1ccccc1-n1ccnc1` [1-[2-(Trifluoromethyl)phenyl]imidazole], the cFRET/donor change was 0.0226. For `COc1cccc(NC(=O)/C=C/c2ccc(Cl)cc2)c1`, the cFRET/donor change was 0.185. `CO/N=C(\C(=O)N[C@@H]1C(=O)N2C(C(=O)O)=C(CSc3nc(=O)c(O)nn3C)CS[C@H]12)c1csc(N)n1` [Ceftriaxone sodium] gave a cFRET/donor change of 0.564. Compound `CC(C)(C)NC[C@H](O)COc1nsnc1N1CCOCC1` [S(-)-Timolol maleate] has a cFRET/donor change of 0.246. `CC(N)=O` [Acetamide] gave a cFRET/donor change of 0.115. For `CC(N)(C(=O)O)c1ccc(C(=O)O)cc1` (racemic) [(±)-alpha-Methyl-4-carboxyphenylglycine], the cFRET/donor change was 0.395. In the case of `CC(C)NCC(O)COc1ccc(COCCOC(C)C)cc1` (stereo not given) [Bisoprolol hemifumarate salt], the cFRET/donor change was 0.00652. In the case of `O=C1NC(=O)[C@@]2(CCOc3ccc(F)cc32)N1` [Sorbinil], the cFRET/donor change was 0.297. In the case of `CCc1cccc(N(C)C(=N)Nc2cccc3ccccc23)c1`, the cFRET/donor change was 0.203. `CN(C)CCN(Cc1cccs1)c1ccccn1` [Methapyrilene hydrochloride] showed a cFRET/donor change of 0.34. With `NC(=O)N1c2ccccc2C=Cc2ccccc21` [Carbamazepine] the cFRET/donor change was 0.241. `CCOC(=O)C1=C(C)NC(C)=C(C(=O)OCC)C1c1c(F)c(F)c(F)c(F)c1F` [Nemadipine-A] gave a cFRET/donor change of 0.483. For `COc1ccccc1CNC1CCCNC1c1ccccc1` (stereo not given), the cFRET/donor change was 0.266. `O=c1cc(-c2ccc(O)cc2)oc2cc(O)cc(O)c12` [Apigenin] gave a cFRET/donor change of -1.74. `CCCCCN(CCCOC)C(=O)C(CCC(=O)O)NC(=O)c1ccc(Cl)c(Cl)c1` (stereo not given) [Loxiglumide] showed a cFRET/donor change of 0.0112. `C[C@@H](N)[C@H]1CC[C@H](C(=O)Nc2ccncc2)CC1` was tested, and the cFRET/donor change was 0.226. `c1cnc2cc3c(cc2n1)[C@@H]1CNC[C@H]3C1` [Varenicline tartrate] showed a cFRET/donor change of 0.22. For `CCn1cc(C(=O)O)c(=O)c2ccc(C)nc21` [Nalidixic acid sodium], the cFRET/donor change was 0.151. Work on `Cc1cccc(/C=C/c2ccccc2)n1` yielded a cFRET/donor change of 0.662. For `C#CCN(C)Cc1ccccc1` [Pargyline hydrochloride], the cFRET/donor change was 0.215. Compound `O=c1[nH]c2ccccc2c2ccccc12` [6(5H)-Phenanthridinone] has a cFRET/donor change of -0.194. With `O=C(CCCN1CC=C(n2c(=O)[nH]c3ccccc32)CC1)c1ccc(F)cc1` [Droperidol] the cFRET/donor change was 1.08. In the case of `CCN(CC)CCNC(=O)c1cc(S(C)(=O)=O)ccc1OC` [Tiapride hydrochloride], the cFRET/donor change was -0.134. `COc1nc(C)nc(Cl)c1NC1=NCCN1` [Moxonidine hydrochloride] gave a cFRET/donor change of 0.0702. In the case of `N#CC(C#N)=C(N)/C(C#N)=C/c1ccc(O)cc1` [Tyrphostin AG 112], the cFRET/donor change was 0.38. `CCCCS(=O)(=O)N[C@@H](Cc1ccc(OCCCCC2CCNCC2)cc1)C(=O)O` [Tirofiban hydrochloride monohydrate] was tested, and the cFRET/donor change was 0.174. Work on `NCCS(=O)(=O)O` [Taurine] yielded a cFRET/donor change of -0.02. `COc1cc2nc(N3CCN(C(=O)c4ccco4)CC3)nc(N)c2cc1OC` [Prazosin hydrochloride] gave a cFRET/donor change of 0.439. For `c1ccc(C(NCCNC(c2ccccc2)c2ccccc2)c2ccccc2)cc1`, the cFRET/donor change was 0.0957. Compound `COc1ccc(C(=O)NCc2cccnc2)cc1C(=O)NCc1cccnc1` [Picotamide] has a cFRET/donor change of -0.0166. `CC(C)c1cccc(C(C)C)c1N1C(=O)c2ccc(O)cc2C1=O` gave a cFRET/donor change of -0.574. With `COc1ccc2[nH]cc(CCNC(C)=O)c2c1` [Melatonin] the cFRET/donor change was 0.372. `CN1C2CCCC1CC(NC(=O)c1nn(C)c3ccccc13)C2` (stereo not given) [Granisetron hydrochloride] showed a cFRET/donor change of 0.333. With `OC(CCN1CCCCC1)(c1ccccc1)C1CC2C=CC1C2` (stereo not given) [Biperiden hydrochloride] the cFRET/donor change was 0.472. Compound `CCN(Cc1ccncc1)C(=O)C(CO)c1ccccc1` (stereo not given) [Tropicamide] has a cFRET/donor change of -0.179. Work on `N=C(N)c1ccccc1` [Benzamidine hydrochloride] yielded a cFRET/donor change of 0.0148. `CCCCCc1ccc(/C=C/C(=O)Nc2cc(Cl)ccc2C(=O)O)cc1` was tested, and the cFRET/donor change was 0.0865. Work on `COc1cc(OC)c(C=C2C(=O)Nc3ccccc32)c(OC)c1` yielded a cFRET/donor change of 0.382. For `O=c1oc(Cl)c(Cl)c2ccccc12` [3,4-Dichloroisocoumarin], the cFRET/donor change was 1.94. With `NCCCCCCCCCCN` [1,10-Diaminodecane] the cFRET/donor change was 0.307. Compound `OCCN1CCN(CCCN2c3ccccc3Sc3ccc(Cl)cc32)CC1` [Perphenazine] has a cFRET/donor change of 0.48. With `CN(C)CCc1c[nH]c2ccc(Cn3cncn3)cc12` [Rizatriptan benzoate salt] the cFRET/donor change was 0.115.
